# Test results published in the supplement of paper PMC8728848.
# Some of the results follow.
# Legend:
# Test in all cases: glycan array binding signal (z-score within array); higher = stronger binding
# Conditions in all cases: glycan notation: IUPAC condensed, linker removed
# [1] = target: Fuc(a1-2)[GalNAc(a1-3)]Gal(b1-3)GlcNAc(b1-6)GalNAc
# Outline: (§1)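 Arrays were curated from the Consortium for Functional Glycomics database, 3228 in total, and kept only where the protein sequence was available. Binding is expressed as a within-array Z-score. This score was averaged across arrays of the same protein sequence at different concentrations or buffers and across linkers, and negative values can be read as non-binding.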
# [2] = target: Fuc(a1-2)[GalNAc(a1-3)]Gal(b1-4)Glc
# Outline: as §1
# [3] = target: Fuc(a1-2)[GalNAc(a1-3)]Gal(b1-4)GlcNAc
# Outline: as §1
# [4] = target: Fuc(a1-2)[GalNAc(a1-3)]Gal(b1-4)GlcNAc(b1-2)Man
# Outline: as §1
# [5] = target: Fuc(a1-2)[GalNAc(a1-3)]Gal(b1-4)GlcNAc(b1-2)Man(a1-3)[Fuc(a1-2)[GalNAc(a1-3)]Gal(b1-4)GlcNAc(b1-2)Man(a1-6)]Man(b1-4)GlcNAc(b1-4)GlcNAc
# Outline: as §1
# [6] = target: Fuc(a1-2)[GalNAc(a1-3)]Gal(b1-4)GlcNAc(b1-2)Man(a1-3)[Fuc(a1-2)[GalNAc(a1-3)]Gal(b1-4)GlcNAc(b1-2)Man(a1-6)]Man(b1-4)GlcNAc(b1-4)[Fuc(a1-6)]GlcNAc
# Outline: as §1
# [7] = target: Fuc(a1-2)[GalNAc(a1-3)]Gal(b1-4)GlcNAc(b1-3)Gal(b1-4)GlcNAc
# Outline: as §1
# [8] = target: Fuc(a1-2)[GalNAc(a1-3)]Gal(b1-4)GlcNAc(b1-3)Gal(b1-4)GlcNAc(b1-3)Gal(b1-4)GlcNAc
# Outline: as §1
# [9] = target: Fuc(a1-2)[GalNAc(a1-3)]Gal(b1-4)GlcNAc(b1-3)GalNAc
# Outline: as §1
# [10] = target: Fuc(a1-2)[GalNAc(a1-3)]Gal(b1-4)GlcNAc(b1-3)[Fuc(a1-2)[GalNAc(a1-3)]Gal(b1-4)GlcNAc(b1-6)]GalNAc
# Outline: as §1
# [11] = target: Fuc(a1-2)[GalNAc(a1-3)]Gal(b1-4)GlcNAc(b1-6)GalNAc
# Outline: as §1
# [12] = target: Fuc(a1-2)[GalNAc(a1-3)]Gal(b1-4)[Fuc(a1-3)]GlcNAc
# Outline: as §1
# [13] = target: Fuc(a1-2)[GalNAc(a1-3)]Gal(b1-4)[Fuc(a1-3)]GlcNAc(b1-3)GalNAc
# Outline: as §1
# [14] = target: Fuc(a1-2)[GalNAc(a1-4)]Gal(b1-4)GlcNAc
# Outline: as §1
# [15] = target: Fuc(a1-2)[GalNAc(b1-3)]Gal
# Outline: as §1
# [16] = target: Fuc(a1-3)GlcNAc
# Outline: as §1
# [17] = target: Fuc(a1-3)[Gal(b1-4)]Glc6S
# Outline: as §1
# [18] = target: Fuc(a1-3)[Gal(b1-4)]GlcNAc
# Outline: as §1
# [19] = target: Fuc(a1-3)[Gal(b1-4)]GlcNAc(b1-2)Man
# Outline: as §1
# [20] = target: Fuc(a1-3)[Gal(b1-4)]GlcNAc(b1-2)Man(a1-3)[Fuc(a1-3)[Gal(b1-4)]GlcNAc(b1-2)Man(a1-6)]Man(b1-4)GlcNAc(b1-4)GlcNAc
# Outline: as §1
# [21] = target: Fuc(a1-3)[Gal(b1-4)]GlcNAc(b1-2)Man(a1-3)[Fuc(a1-3)[Gal(b1-4)]GlcNAc(b1-2)Man(a1-6)]Man(b1-4)GlcNAc(b1-4)[Fuc(a1-6)]GlcNAc
# Outline: as §1
# [22] = target: Fuc(a1-3)[Gal(b1-4)]GlcNAc(b1-3)Gal(b1-3)[Fuc(a1-4)]GlcNAc
# Outline: as §1
# [23] = target: Fuc(a1-3)[Gal(b1-4)]GlcNAc(b1-3)Gal(b1-4)[Fuc(a1-3)]GlcNAc
# Outline: as §1
# [24] = target: Fuc(a1-3)[Gal(b1-4)]GlcNAc(b1-3)Gal(b1-4)[Fuc(a1-3)]GlcNAc(b1-3)Gal(b1-4)[Fuc(a1-3)]GlcNAc
# Outline: as §1
# [25] = target: Fuc(a1-3)[Gal(b1-4)]GlcNAc(b1-3)GalNAc
# Outline: as §1
# [26] = target: Fuc(a1-3)[Gal(b1-4)]GlcNAc(b1-6)GalNAc
# Outline: as §1
# [27] = target: Fuc(a1-3)[Gal(b1-4)]GlcNAc(b1-6)[Gal(b1-3)GlcNAc(b1-3)]Gal(b1-4)Glc
# Outline: as §1
# [28] = target: Fuc(a1-3)[Gal(b1-4)]GlcNAc6S
# Outline: as §1
# [29] = target: Fuc(a1-3)[Gal3S(b1-4)]Glc
# Outline: as §1
# [30] = target: Fuc(a1-3)[Gal3S(b1-4)]GlcNAc
# Outline: as §1
# [31] = target: Fuc(a1-3)[Gal3S(b1-4)]GlcNAc6S
# Outline: as §1
# [32] = target: Fuc(a1-3)[GalNAc(b1-4)]GlcNAc
# Outline: as §1
# [33] = target: Fuc(a1-3)[GalNAc(b1-4)]GlcNAc6S
# Outline: as §1
# [34] = target: Fuc(a1-4)GlcNAc
# Outline: as §1
# [35] = target: Fuc(b1-3)GlcNAc
# Outline: as §1
# [36] = target: Gal(a1-2)Gal
# Outline: as §1
# [37] = target: Gal(a1-3)Gal
# Outline: as §1
binder,measurement,setting,value
Loc1 (Escherichia coli) (protein) APCALTNVGEQRGTYILKPLSMKGNLTAEKIENTGNIIECTDLQETTNAIKVHFLTQNALKFKVGSRHYIINFPFEYDGKKIELPGKSSYNLEEMLSAINFTIPYSIASVSDSSNTADIFPGTPFPLLFEIEVSSCTGNNTNCNSVRFNYNLNTILQVNLMTHHHHHH,glycan array binding signal (z-score),[1],-0.51
same,glycan array binding signal (z-score),[2],-0.07
same,glycan array binding signal (z-score),[3],-0.267
same,glycan array binding signal (z-score),[4],-0.354
same,glycan array binding signal (z-score),[5],0.273
same,glycan array binding signal (z-score),[6],0.012
same,glycan array binding signal (z-score),[7],-0.467
same,glycan array binding signal (z-score),[8],-0.079
same,glycan array binding signal (z-score),[9],-0.086
same,glycan array binding signal (z-score),[10],-0.761
same,glycan array binding signal (z-score),[11],0.466
same,glycan array binding signal (z-score),[12],0.143
same,glycan array binding signal (z-score),[13],-0.744
same,glycan array binding signal (z-score),[14],-0.024
same,glycan array binding signal (z-score),[15],-0.046
same,glycan array binding signal (z-score),[16],0.44
same,glycan array binding signal (z-score),[17],-0.016
same,glycan array binding signal (z-score),[18],0.591
same,glycan array binding signal (z-score),[19],-0.421
same,glycan array binding signal (z-score),[20],-0.255
same,glycan array binding signal (z-score),[21],-0.913
same,glycan array binding signal (z-score),[22],-0.366
same,glycan array binding signal (z-score),[23],-0.859
same,glycan array binding signal (z-score),[24],1.73
same,glycan array binding signal (z-score),[25],-0.41
same,glycan array binding signal (z-score),[26],3.45
same,glycan array binding signal (z-score),[27],-0.496
same,glycan array binding signal (z-score),[28],-0.349
same,glycan array binding signal (z-score),[29],0.786
same,glycan array binding signal (z-score),[30],-0.33
same,glycan array binding signal (z-score),[31],0.108
same,glycan array binding signal (z-score),[32],0.823
same,glycan array binding signal (z-score),[33],-0.614
same,glycan array binding signal (z-score),[34],-0.526
same,glycan array binding signal (z-score),[35],-0.529
same,glycan array binding signal (z-score),[36],-1.11
same,glycan array binding signal (z-score),[37],0.191

# As a short view, some entries already given.
binder,measurement,setting,value
Loc1 (Escherichia coli) (protein) APCALTNVGEQRGTYILKPLSMKGNLTAEKIENTGNIIECTDLQETTNAIKVHFLTQNALKFKVGSRHYIINFPFEYDGKKIELPGKSSYNLEEMLSAINFTIPYSIASVSDSSNTADIFPGTPFPLLFEIEVSSCTGNNTNCNSVRFNYNLNTILQVNLMTHHHHHH,glycan array binding signal (z-score),[12],0.143
same,glycan array binding signal (z-score),[13],-0.744
